# US9994578B2, “Benzodiazepine derivative and use thereof” (JIANGSU NHWALUOKANG PHARMCEUTICAL RESEARCH AND DEVELOPMENT …, priority 2014, dated 2018)
# At least one compound was matched to its structure with a doubt left. Marks after values point to notes of the source that are not given here. Some results were stated once for a whole list of compounds, not compound by compound.
# How the values were obtained:
# Kunming mice = test: Anesthetic efficacy on mice (disappearance of righting reflex); assay type: in vivo; conditions: 9 mg/kg i.v.
# Protocol: Kunming mice (SPF, Chongqing Medical University Animal Center) were randomly grouped with 6 animals in each group. The dosage as 9 mg/kg was administered via caudal vein injection for 3-5 seconds. The performances during animal experiments were recorded with the standard of disappearance of righting reflex.
# [1] = system: GABAA receptor benzodiazepines site; test: In vitro affinity with GABAA receptor benzodiazepines site (3H-flunitrazepam displacement, brain membrane); assay type: binding, SD rat
structure (smiles),measurement,setting,value
"CCCOC(=O)CC[C@@H]1N=C(c2ccccn2)c2cc(Br)ccc2-n2c(C)cnc21.Cc1ccc(S(=O)(=O)O)cc1 [C7, remimazolam acid n-propyl ester p-toluenesulfonate]",anesthetic effect on the mice,Kunming mice,do not have anesthetic effect on the mice
"Cc1ccc(S(=O)(=O)O)cc1.Cc1cnc2n1-c1ccc(Br)cc1C(c1ccccn1)=N[C@H]2CCC(=O)OC1CCCCC1 [C9, remimazolam acid cyclohexyl ester p-toluenesulfonate]",anesthetic effect on the mice,Kunming mice,do not have anesthetic effect on the mice
"Cc1ccc(S(=O)(=O)O)cc1.Cc1cnc2n1-c1ccc(Br)cc1C(c1ccccn1)=N[C@H]2CCC(=O)OCCC(C)C [C8, remimazolam acid isopentyl ester p-toluenesulfonate]",anesthetic effect on the mice,Kunming mice,do not have anesthetic effect on the mice
"CCOC(=O)CC[C@@H]1N=C(c2ccccn2)c2cc(Br)ccc2-n2c(C)cnc21 [C2, remimazolam acid ethyl ester p-toluenesulfonate]",anesthetic effect on the mice,Kunming mice,has anesthetic effect on the mice
same,affinity with GABAA receptor benzodiazepines site,[1],relatively high affinity
same,Inhibitory rate %,"[1]; 1.0 × 10^−5M test compound, 1 nM 3H-flunitrazepam",98.0* %
same,Inhibitory rate %,[1]; 1.0 × 10^−6M,81.9%
same,Inhibitory rate %,[1]; 1.0 × 10^−7M,37.7%
same,Inhibitory rate %,[1]; 1.0 × 10^−8M,7.9%
same,Inhibitory rate %,[1]; 1.0 × 10^−9M,9.5%
same,Inhibitory rate %,[1]; 1.0 × 10^−10M,0%
same,IC50,[1]; calculated by logit method,118 nM
